Measurements reported in PMC10517016, “SCARB2 drives hepatocellular carcinoma tumor initiating cells via enhanced MYC transcriptional activity” (Nature Communications, 2023).
No constants are given. Whether binding was seen depends on the method and setting. Binding seen in cells or lysates may run through a third protein. Here binding means that the protein was enriched with, or labelled near, the bait; the list need not be complete.

By UniProt entry, the sequences of proteins in these tests, tags left out.
UniProt O15379: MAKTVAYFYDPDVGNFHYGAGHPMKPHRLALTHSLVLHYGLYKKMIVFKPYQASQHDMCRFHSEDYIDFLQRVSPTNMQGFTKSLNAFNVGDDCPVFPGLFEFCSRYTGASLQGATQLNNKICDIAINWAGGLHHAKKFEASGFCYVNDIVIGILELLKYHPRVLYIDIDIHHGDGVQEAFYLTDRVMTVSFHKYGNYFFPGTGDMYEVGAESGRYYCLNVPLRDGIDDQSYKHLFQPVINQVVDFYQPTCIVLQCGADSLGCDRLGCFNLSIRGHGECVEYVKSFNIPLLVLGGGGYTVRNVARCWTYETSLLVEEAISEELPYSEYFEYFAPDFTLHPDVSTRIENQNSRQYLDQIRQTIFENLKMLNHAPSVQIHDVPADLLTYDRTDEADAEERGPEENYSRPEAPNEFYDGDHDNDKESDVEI

Target: T1, Scavenger receptor class B member 2 (SCARB2), endogenous (human (endogenous in HCCLM3)) (UniProt Q14108)
T1 sequence: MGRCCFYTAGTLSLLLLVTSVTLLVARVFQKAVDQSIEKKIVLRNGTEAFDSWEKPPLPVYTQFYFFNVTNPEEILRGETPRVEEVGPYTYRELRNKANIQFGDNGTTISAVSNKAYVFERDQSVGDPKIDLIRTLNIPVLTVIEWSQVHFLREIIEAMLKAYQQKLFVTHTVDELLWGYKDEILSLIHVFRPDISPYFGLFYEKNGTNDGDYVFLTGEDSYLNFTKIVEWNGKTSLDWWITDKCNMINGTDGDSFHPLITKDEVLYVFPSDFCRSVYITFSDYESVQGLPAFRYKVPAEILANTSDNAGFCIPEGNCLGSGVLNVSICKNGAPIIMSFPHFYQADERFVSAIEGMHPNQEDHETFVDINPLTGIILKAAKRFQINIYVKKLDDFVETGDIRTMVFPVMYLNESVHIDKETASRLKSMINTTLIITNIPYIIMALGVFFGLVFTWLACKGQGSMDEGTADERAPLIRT
Test: affinity purification with mass spectrometry; whole-cell lysates of HCCLM3 cells, IP with anti-SCARB2 antibody or IgG1 isotype control and Protein A/G agarose overnight at 4 °C, quantitative MS

Row | binding | Substance
1 | binds | HDAC3 (endogenous) (from UniProt O15379 1-428) (enzyme)
2 | binds | MYC (endogenous, wild type) (from UniProt P01106-2 1-454)
